The full ranking holds about 33,000 sequences; the median of “E-score (-0.5 to 0.5)” is about -8e-05, and the highest 2% start at about 0.23. This is one part of the list.
Target: T1, Nrg2 (UniProt P38082)
T1 sequence: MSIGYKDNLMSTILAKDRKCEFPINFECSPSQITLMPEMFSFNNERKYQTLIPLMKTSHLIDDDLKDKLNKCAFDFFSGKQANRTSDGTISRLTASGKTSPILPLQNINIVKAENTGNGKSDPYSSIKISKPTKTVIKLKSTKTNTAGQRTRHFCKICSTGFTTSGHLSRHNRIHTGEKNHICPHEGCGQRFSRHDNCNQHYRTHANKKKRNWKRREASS
Test: PBM E-score (8-mer binding enrichment) (E-score (-0.5 to 0.5)); higher = stronger / more preferred TF binding
Details: protein concentration: 100 nM; construct: GST-full length
Summary of the method: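 Detection of bound protein used fluorescent anti-GST, with scans normalised by masliner. The proteins were GST-tagged yeast transcription factors applied at about 100-200 nM to universal all-10-mer Agilent arrays made double-stranded by primer extension. Each ungapped eight-base word, pooled with its reverse complement, was scored with an E-score from the Universal PBM Analysis Suite.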

| Sequence | PBM E-score |
| --- | --- |
| CACACACA | 0.0943 |
| ATGTAGCG | -0.0885 |
| ACCTCTCG | -0.0649 |
| AGGCAGTG | 0.0683 |
| ATAGAGGA | -0.141 |
| GAGATCCC | 0.164 |
| ACCGGCCA | -0.214 |
| AGGCCGCC | -0.0684 |
| ACCTCAGA | -0.197 |
| GAGATAAA | 0.138 |
| AATGGATC | 0.121 |
| AGTCACAT | -0.181 |
| TGTGGTAA | -0.0785 |
| CGTTAAGA | -0.017 |
| TAATCGGA | 0.128 |
| ATCCTCGA | 0.198 |
| CTCACAAC | 0.206 |
| AACCGGAC | -0.0624 |
| ACGGAAAA | 0.0488 |
| CGCGAGAG | 0.0631 |
| ATGGTCAC | 0.103 |
| ATCCCAGA | -0.161 |

| Sequence | PBM E-score |
| --- | --- |
| CCAAAACA | -0.0279 |
| TCTATGAA | -0.0279 |
| CCACAGAG | 0.125 |
| GGCTGCAA | 0.0578 |
| ACCTGCCA | -0.134 |
| TGCTTCAA | -0.0671 |
| ACATTCCA | -0.0578 |
| AAGATGGG | -0.0491 |
| CGTTCTAA | 0.00602 |
| TCACCCAA | 0.054 |
| GCCGTCGA | 0.0849 |
| ATTGCCGC | -0.0316 |
| ATGGAGGG | -0.254 |
| GGCTCCCA | -0.238 |
| CAACCACC | 0.0494 |
| AGTCCATG | -0.0354 |
| GCTGATCC | 0.0877 |
| ACCTGAAC | -0.159 |
| AGAATAAC | -0.127 |
| AAAATATC | 0.098 |
| CGGTACAA | 0.0143 |
| AGAAGCCT | 0.0897 |

Given with bars between the fields: entries from further up.
Sequence | PBM E-score
ACCTCTCG | -0.0649
ACCGGCCA | -0.214
AGGCCGCC | -0.0684
ACCTCAGA | -0.197
AGTCACAT | -0.181
ATCCTCGA | 0.198
CTCACAAC | 0.206
AACCGGAC | -0.0624
CCACAGAG | 0.125
GGCTGCAA | 0.0578
ACCTGCCA | -0.134
GCCGTCGA | 0.0849
ATTGCCGC | -0.0316
ACCTGAAC | -0.159
AGAATAAC | -0.127
AAAATATC | 0.098
AGAAGCCT | 0.0897

Carrying on.

| Sequence | PBM E-score |
| --- | --- |
| CGGCCCGC | -0.0324 |
| CGGTAGAG | -0.151 |
| AGGCTGGC | -0.227 |
| AGGCCTTG | -0.252 |
| AAACAACG | 0.0386 |
| GAGGTCGA | 0.0639 |
| GTGGATAA | 0.0278 |
| AACAACCT | -0.0786 |
| AGGGTATC | 0.169 |
| AACACGTC | -0.188 |
| GGTAGAAA | -0.11 |
| GCATCTCC | -0.0431 |
| CGCCAACC | -0.155 |
| AGCGAAAC | 0.102 |
| ACACTCTC | 0.104 |
| CTTTTTCC | 0.0458 |
| CCGCCACA | 0.0604 |
| AGATATAT | 0.0823 |
| ATTGATCA | 0.0745 |
| AGTGACCC | 0.0583 |
| CGCGATTA | 0.216 |
| CCCAAACA | 0.211 |

As entered above:
PBM E-score with GCATCTCC is entered as -0.0431
PBM E-score with CTTTTTCC is entered as 0.0458

Going on with the list.

| Sequence | PBM E-score |
| --- | --- |
| AATATCGC | 0.104 |
| GCGTGTAC | -0.0885 |
| CCGTTGTA | 0.201 |
| CCACGCGC | -0.0713 |
| GAGTTTCA | 0.00699 |
| GATTTCGC | 0.281 |
| AGTACGTC | 0.0567 |
| ATAGATCG | 0.0393 |
| CACGCAGC | -0.0258 |
| AATACTTG | 0.0671 |
| CTCTAAAA | -0.195 |
| CAAGTTAG | 0.0709 |
| GCAGCTAC | -0.00081 |
| CCCATGCG | -0.177 |
| TATATCAA | 0.149 |
| CGCCTAAA | -0.134 |
| AGGTCAGC | -0.135 |
| AAGATTTA | 0.00464 |
| GAGGACAA | 0.0114 |
| CCCTGACA | 0.288 |
